Laboratory results as given in publication PMC6131509.
These are yes or no findings as the source states them, for the method shown. Binding seen in cells or lysates may run through a third protein. Some results given as binding are weak or reduced against the parent protein; the word gives no strength.

Protein sequences, listed by entry. Tags and fused reporters are not part of them. Lines headed by an entry give the natural chain unless they say otherwise; changes in a name come on top. Chains listed by the source or under a name are the forms on record and can include a tag or linker.
UniProt B2RWS6: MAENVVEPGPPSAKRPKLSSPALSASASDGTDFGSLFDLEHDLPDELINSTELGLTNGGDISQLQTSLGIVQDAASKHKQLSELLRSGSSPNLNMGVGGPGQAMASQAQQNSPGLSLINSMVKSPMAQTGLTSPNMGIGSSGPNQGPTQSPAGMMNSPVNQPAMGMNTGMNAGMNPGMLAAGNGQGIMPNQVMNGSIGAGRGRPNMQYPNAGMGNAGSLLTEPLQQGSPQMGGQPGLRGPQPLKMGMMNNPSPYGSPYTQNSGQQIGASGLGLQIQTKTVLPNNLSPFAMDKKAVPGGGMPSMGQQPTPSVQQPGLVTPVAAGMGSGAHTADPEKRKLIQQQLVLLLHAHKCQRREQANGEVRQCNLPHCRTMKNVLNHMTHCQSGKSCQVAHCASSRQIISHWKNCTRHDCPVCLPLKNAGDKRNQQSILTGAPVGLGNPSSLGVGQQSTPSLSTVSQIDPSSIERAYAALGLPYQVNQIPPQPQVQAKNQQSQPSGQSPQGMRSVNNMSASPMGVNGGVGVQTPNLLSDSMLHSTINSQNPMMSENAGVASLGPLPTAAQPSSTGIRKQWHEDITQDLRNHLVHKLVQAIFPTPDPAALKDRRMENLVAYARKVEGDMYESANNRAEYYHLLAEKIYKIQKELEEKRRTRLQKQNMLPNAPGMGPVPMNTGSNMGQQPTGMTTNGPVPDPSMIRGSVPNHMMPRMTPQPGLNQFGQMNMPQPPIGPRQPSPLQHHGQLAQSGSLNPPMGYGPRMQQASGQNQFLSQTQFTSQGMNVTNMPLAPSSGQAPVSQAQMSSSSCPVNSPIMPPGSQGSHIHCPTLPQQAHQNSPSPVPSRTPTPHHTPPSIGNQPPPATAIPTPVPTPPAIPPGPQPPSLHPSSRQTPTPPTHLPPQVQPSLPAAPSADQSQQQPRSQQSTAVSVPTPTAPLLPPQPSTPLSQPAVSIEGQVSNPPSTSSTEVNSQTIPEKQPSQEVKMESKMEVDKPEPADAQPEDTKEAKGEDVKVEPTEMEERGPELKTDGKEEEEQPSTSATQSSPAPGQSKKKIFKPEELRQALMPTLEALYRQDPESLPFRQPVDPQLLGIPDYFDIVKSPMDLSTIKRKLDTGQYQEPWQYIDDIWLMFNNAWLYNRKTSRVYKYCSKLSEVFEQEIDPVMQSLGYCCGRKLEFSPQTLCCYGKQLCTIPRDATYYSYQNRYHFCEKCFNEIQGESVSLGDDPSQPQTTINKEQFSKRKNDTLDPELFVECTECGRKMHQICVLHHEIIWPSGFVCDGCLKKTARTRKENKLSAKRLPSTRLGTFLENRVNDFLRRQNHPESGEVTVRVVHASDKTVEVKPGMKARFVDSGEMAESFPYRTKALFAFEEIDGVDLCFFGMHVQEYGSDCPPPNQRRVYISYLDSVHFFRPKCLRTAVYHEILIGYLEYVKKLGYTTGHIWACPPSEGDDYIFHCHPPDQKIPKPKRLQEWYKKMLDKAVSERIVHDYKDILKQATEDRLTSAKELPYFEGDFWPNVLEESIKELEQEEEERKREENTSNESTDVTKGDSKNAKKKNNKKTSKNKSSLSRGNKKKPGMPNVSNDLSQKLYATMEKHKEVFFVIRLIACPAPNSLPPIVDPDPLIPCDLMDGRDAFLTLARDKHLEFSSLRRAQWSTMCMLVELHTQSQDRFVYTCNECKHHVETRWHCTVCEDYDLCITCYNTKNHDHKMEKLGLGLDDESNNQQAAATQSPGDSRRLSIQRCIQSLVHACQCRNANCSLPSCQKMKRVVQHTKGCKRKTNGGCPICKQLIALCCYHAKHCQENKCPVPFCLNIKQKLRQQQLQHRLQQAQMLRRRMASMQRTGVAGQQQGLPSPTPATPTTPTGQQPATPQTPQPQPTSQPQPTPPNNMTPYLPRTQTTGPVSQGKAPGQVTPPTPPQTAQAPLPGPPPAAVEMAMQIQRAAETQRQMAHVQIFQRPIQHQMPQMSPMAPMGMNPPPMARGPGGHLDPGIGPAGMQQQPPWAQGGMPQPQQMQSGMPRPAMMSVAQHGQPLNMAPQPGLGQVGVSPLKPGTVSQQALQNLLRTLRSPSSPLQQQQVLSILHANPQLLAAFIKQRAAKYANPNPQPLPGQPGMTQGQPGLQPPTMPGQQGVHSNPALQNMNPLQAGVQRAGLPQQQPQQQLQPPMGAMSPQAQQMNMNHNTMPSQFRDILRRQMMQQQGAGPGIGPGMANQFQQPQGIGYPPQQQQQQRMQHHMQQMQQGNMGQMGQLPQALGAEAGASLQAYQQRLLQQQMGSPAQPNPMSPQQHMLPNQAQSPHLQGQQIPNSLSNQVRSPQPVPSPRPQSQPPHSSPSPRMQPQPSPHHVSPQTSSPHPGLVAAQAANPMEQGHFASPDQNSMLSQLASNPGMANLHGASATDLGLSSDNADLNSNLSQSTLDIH
pS133-CREB (CREB phosphorylated at Ser133) (Q01147-1, form named): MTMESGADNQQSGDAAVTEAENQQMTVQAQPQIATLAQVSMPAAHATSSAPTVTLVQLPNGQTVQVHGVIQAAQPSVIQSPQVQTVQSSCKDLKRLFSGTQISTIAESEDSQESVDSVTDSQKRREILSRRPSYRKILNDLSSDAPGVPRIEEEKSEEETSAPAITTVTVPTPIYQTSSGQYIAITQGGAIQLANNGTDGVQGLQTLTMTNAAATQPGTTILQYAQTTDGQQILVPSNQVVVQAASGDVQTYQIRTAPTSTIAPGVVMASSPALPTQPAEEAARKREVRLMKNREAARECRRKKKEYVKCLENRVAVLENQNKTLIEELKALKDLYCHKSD

How the values were obtained:
[1] = biological target: p300G422S (phosphorylation-competent knock-in p300) (mouse (endogenous in hippocampus)) (UniProt B2RWS6); assay: co-IP; 1 mg hippocampal lysate (3- and 6-month WT, p300G422S-KI and C57B6 mice) with 3 ug anti-p300 antibody and protein A magnetic beads, 4 °C overnight; lysis buffer 25 mM Tris pH 7.4, 10 mM NaCl, 2 mM EDTA, 1 mM EGTA, 0.5% Triton, 10% glycerol; beads rinsed 3 times; blotted for CREB, pS133-CREB or aPKC
[2] = biological target: p300 (wild type) (mouse (endogenous in hippocampus)) (UniProt B2RWS6); assay: as above

Row | binding [1] | binding [2] | Substance
1 | binds | binds | CREB (from UniProt Q01147-1 1-341)
2 | – | binds | pS133-CREB (CREB phosphorylated at Ser133) (from UniProt Q01147-1 1-341)
